Data source: PubChem BioAssay AID1259425 (University of Nebraska Medical Center, 2018)
Here is one part, drawn at random, of about 14,000 reagents. Not stated in the record: the time to read-out.

Screen: 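Compare each knockdown with KSR1 silencing using changes in marker transcripts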 (primary screen)
Cells: HCT116 human colon cancer cells
Reagents: siRNA pool against human genes, 50 nM siRNA
Read-out: 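mRNA of six signature genes measured together by branched-DNA assay after 50 nM siRNA pool, blank removed, divided by geometric mean of two housekeeping genes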
Direction: BNIP3L mRNA: higher = more BNIP3L transcript after knockdown; NDRG1 mRNA: higher = more NDRG1 transcript after knockdown; BNIP3 mRNA: higher = more BNIP3 transcript after knockdown; ALDOC mRNA: higher = more ALDOC transcript after knockdown; ACSL5 mRNA: higher = more ACSL5 transcript after knockdown

| Target gene | PubChem SID | BNIP3L mRNA, set 1 | NDRG1 mRNA, set 1 | BNIP3 mRNA, set 1 | ALDOC mRNA, set 1 | ACSL5 mRNA, set 1 |
| --- | --- | --- | --- | --- | --- | --- |
| PRKCI (protein kinase C iota) | SID363993898 | 0.111 | 0.0467 | 0.286 | 0.00369 | 0.152 |
| IWS1 (interacts with SUPT6H, CTD assembly factor 1) | SID364000678 | 0.0435 | 0.21 | 0.344 | 0.0339 | 0.151 |
| FNBP1L (formin binding protein 1 like) | SID364000484 | 0.075 | 0.112 | 0.366 | 0.0211 | 0.244 |
| DAZ2 (deleted in azoospermia 2) | SID364001631 | 0.106 | 0.13 | 0.298 | 0.0186 | 0.137 |
| HOXB13 (homeobox B13) | SID363997177 | 0.0745 | 0.0954 | 0.243 | 0.000401 | 0.191 |
| KIAA0492 (retired record) | SID364005613 | 0.205 | 0.122 | 0.438 | 0.0795 | 0.388 |
| EPOR (erythropoietin receptor) | SID363991457 | 0.0736 | 0.529 | 0.236 | 0.0206 | 0.287 |
| LAS1L (LAS1 like ribosome biogenesis factor) | SID364003545 | 0.204 | 0.494 | 0.327 | 0.0581 | 0.392 |
| SPATA6L (spermatogenesis associated 6 like) | SID364000687 | 0.233 | 0.466 | 0.269 | 0.0397 | 0.141 |
| P2RY8 (P2Y receptor family member 8) | SID364004905 | 0.197 | 0.297 | 0.375 | 0.0375 | 0.27 |
| FGF21 (fibroblast growth factor 21) | SID364001412 | 0.0695 | 0.0921 | 0.273 | 0.0303 | 0.118 |
| ABRAXAS1 (abraxas 1, BRCA1 A complex subunit) | SID364004597 | 0.196 | 0.352 | 0.194 | 0.0715 | 0.225 |
| CYP8B1 (cytochrome P450 family 8 subfamily B member 1) | SID363995375 | 0.0395 | 0.0677 | 0.355 | 0.00821 | 0.145 |
| SYP (synaptophysin) | SID363994315 | 0.177 | 0.163 | 0.319 | 0.0337 | 0.187 |
| CRYBB1 (crystallin beta B1) | SID363993100 | 0.124 | 0.232 | 0.763 | 0.041 | 0.526 |
| HINT1 (histidine triad nucleotide binding protein 1) | SID363996256 | 0.118 | 0.146 | 0.3 | 0.0222 | 0.185 |
| CROCC (ciliary rootlet coiled-coil, rootletin) | SID364005440 | 0.262 | 0.268 | 0.378 | 0.0748 | 0.126 |
| PLEKHH1 (pleckstrin homology, MyTH4 and FERM domain containing H1) | SID364005523 | 0.255 | 0.493 | 0.38 | 0.0884 | 0.389 |
| ARMC9 (armadillo repeat containing 9) | SID364003269 | 0.148 | 0.67 | 0.53 | 0.00917 | 0.326 |
| NFS1 (NFS1 cysteine desulfurase) | SID364002008 | 0.185 | 0.145 | 0.283 | 0.0478 | 0.141 |
| METTL25 (methyltransferase like 25) | SID364003841 | 0.12 | 0.075 | 0.253 | 0.0287 | 0.205 |
| MGST1 (microsomal glutathione S-transferase 1) | SID364001596 | 0.115 | 0.168 | 0.235 | 0.0313 | 0.0818 |
| SLC8A1 | SID364002006 | 0.109 | 0.148 | 0.398 | 0.0186 | 0.0979 |
| HRG (histidine rich glycoprotein) | SID363991743 | 0.147 | 0.339 | 0.442 | 0.0308 | 0.302 |
| ASAP3 (ArfGAP with SH3 domain, ankyrin repeat and PH domain 3) | SID364000459 | 0.0764 | 0.159 | 0.244 | 0.0327 | 0.256 |
| GTPBP8 (GTP binding protein 8) | SID363998627 | 0.0932 | 0.078 | 0.224 | 0.032 | 0.121 |
| PER3 (period circadian regulator 3) | SID364000268 | 0.197 | 0.2 | 0.208 | 0.0432 | 0.384 |
| PKD2L1 | SID363999881 | 0.0411 | 0.168 | 0.281 | 0.0303 | 0.243 |
| REG3A (regenerating family member 3 alpha) | SID363993749 | 0.14 | 0.162 | 0.42 | 0.0132 | 0.348 |
| PRSS50 (serine protease 50) | SID363998394 | 0.0691 | 0.344 | 0.354 | 0.0151 | 0.136 |
| CREBZF (CREB/ATF bZIP transcription factor) | SID364002097 | 0.802 | 0.158 | 1.61 | -0.183 | 1.3 |
| RPA3 (replication protein A3) | SID363994098 | 0.125 | 0.404 | 0.311 | 0.0381 | 0.292 |
| PPM1B (protein phosphatase, Mg2+/Mn2+ dependent 1B) | SID363993865 | 0.0791 | 0.415 | 0.322 | 0.0123 | 0.349 |
| HCRTR2 (hypocretin receptor 2) | SID363992784 | 0.112 | 0.323 | 0.286 | 0.0269 | 0.142 |
| PLEKHA1 (pleckstrin homology domain containing A1) | SID364002147 | 0.0907 | 0.0571 | 0.327 | 0.00863 | 0.129 |
| CNTN2 (contactin 2) | SID363996013 | 0.609 | 0.677 | 0.534 | 0.0475 | 0.113 |
| ZNF23 (zinc finger protein 23) | SID364004678 | 0.145 | 0.0665 | 0.376 | 0.0215 | 0.137 |
| U2SURP (U2 snRNP associated SURP domain containing) | SID364005056 | 0.204 | 0.833 | 0.267 | 0.0245 | 0.287 |
| SLCO1B3 | SID364001450 | 0.102 | 0.123 | 0.303 | 0.0296 | 0.0946 |
| ARF3 (ARF GTPase 3) | SID363992883 | 0.164 | 0.654 | 0.332 | 0.0638 | 0.237 |
| GEMIN2 (gem nuclear organelle associated protein 2) | SID363994694 | 0.089 | 0.187 | 0.245 | 0.0146 | 0.234 |
| SLIT3 (slit guidance ligand 3) | SID363994210 | 0.0382 | 0.122 | 0.289 | 0.0251 | 0.105 |
| CHD1 (chromodomain helicase DNA binding protein 1) | SID363992555 | 0.116 | 0.12 | 0.156 | 0.0207 | 0.194 |
| GRIA2 (glutamate ionotropic receptor AMPA type subunit 2) | SID363992114 | 0.0747 | 0.19 | 0.238 | 0.0231 | 0.151 |
| EDN1 (endothelin 1) | SID363993167 | 0.113 | 0.258 | 0.163 | 0.01 | 0.227 |
| CABLES2 (Cdk5 and Abl enzyme substrate 2) | SID364003553 | 0.215 | 0.467 | 0.466 | 0.0527 | 0.343 |
| CNGB3 (cyclic nucleotide gated channel subunit beta 3) | SID364001398 | 0.127 | 0.15 | 0.354 | 0.0271 | 0.0778 |
| GAGE5 (G antigen 5) | SID363992735 | 0.128 | 0.348 | 0.251 | 0.0361 | 0.214 |
| DNAJB4 (DnaJ heat shock protein family (Hsp40) member B4) | SID363997765 | 0.258 | 0.305 | 0.302 | 0.0281 | 0.177 |
| MAVS (mitochondrial antiviral signaling protein) | SID364001801 | 0.192 | 0.847 | 0.256 | 0.0407 | 0.418 |

Laid out differently: 2 of the entries above
{"Target gene":"PPM1B (protein phosphatase, Mg2+/Mn2+ dependent 1B)","PubChem SID":"SID363993865","BNIP3L mRNA, set 1":0.0791,"NDRG1 mRNA, set 1":0.415,"BNIP3 mRNA, set 1":0.322,"ALDOC mRNA, set 1":0.0123,"ACSL5 mRNA, set 1":0.349}
{"Target gene":"HCRTR2 (hypocretin receptor 2)","PubChem SID":"SID363992784","BNIP3L mRNA, set 1":0.112,"NDRG1 mRNA, set 1":0.323,"BNIP3 mRNA, set 1":0.286,"ALDOC mRNA, set 1":0.0269,"ACSL5 mRNA, set 1":0.142}
